Results reported in PubChem BioAssay AID1347076 (National Center for Advancing Translational Sciences (NCATS), 2019).
Screen size: about 400,000 compounds; about 13,000 (3.2%) were called active. Inconclusive means that the source gave no clear call. Such entries were picked first, then a sample of the others. The call rests on the fitted dose curve; in most records, active means well fitted cell-killing curve with a large enough effect; inconclusive means small, poorly fitted or top-dose-only effect, or effect the other way; inactive means flat fitted curve, though single readings scatter. Potencies beside an inconclusive call are fits to weak or partial responses and may not hold up.

Assay: qHTS assay for MDR1-selective chemotherapeutics: Primary screen using the drug-selected MDR subline cells KB-V1; further: nearly all actives have a fitted effect of over 60% in size
Conditions: KB-V1 MDR cells viability, CellTiter-Glo, 72 h; series mostly up to 46.1 µM
How it was run: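 Cells of the MDR subline KB-V1 are plated, dosed with compound at multiple concentrations, and incubated 72 h at 37 degrees C; CellTiter-Glo is then added and luminescence read after 10 min.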
Potency means the concentration at half of the fitted maximal effect.

Structure (SMILES)	Potency
N#Cc1ccsc1NC(=O)COC(=O)c1ccc(NC(N)=O)cc1	inconclusive: 25.9 µM [rising, single point]
Cc1cc(NCCCN2CCOCC2)n2ncc(-c3ccc(Cl)cc3)c2n1	inconclusive: 20.6 µM [cytotoxic, single point]
COCCCNC(=O)c1cc(C)nn1-c1ccccc1	inconclusive: 16.4 µM [rising, single point]
COc1cccc(OC)c1C(=O)NC(=O)Oc1c(F)cccc1F	inactive
CCn1c(SCC(=O)Nc2ccc(F)cc2F)nc2c(c1=O)SCC2	inconclusive: 23.1 µM [cytotoxic, partial curve, poor fit]
COC(C)c1oc2c(C)c3oc(=O)cc(C)c3cc2c1C (stereo not given)	inconclusive: 7.31 µM [cytotoxic, partial curve]
O=C(Nc1ccc(Cl)cc1)/C(=C/c1cccc(O)c1)c1nc2ccccc2s1	inconclusive: 4.11 µM [cytotoxic, full curve, poor fit]
COC(=O)C(Cc1ccccc1)NC(=O)CCc1c[nH]c2ccccc12 (stereo not given)	inactive
COc1ccc(-c2ccc(N3C(c4ccsc4)=Cc4ccc(F)cc4C3c3c[nH]c4ccccc34)cc2)cc1 (stereo not given)	inactive
COC(=O)c1c(Oc2nc(OC)cc(OC)n2)cccc1Oc1nc(OC)cc(OC)n1	inactive
Cc1ccc(NC(=O)[C@H](NC(=O)[C@@H]2Cc3ccccc3CN2)c2ccccc2)cc1	inactive
CCCCOc1ccc(C(=O)Nc2ccc(N3CCN(C)CC3)cc2)cc1	inconclusive: 14.6 µM [cytotoxic, partial curve, poor fit]
COc1ccc(S(=O)(=O)Nc2cc([N+](=O)[O-])ccc2OC)cc1	active: 18.4 µM
COc1ccc(/C=N/Nc2nc3ccccc3s2)cc1O	inconclusive: 32.6 µM [cytotoxic, partial curve, poor fit]
COc1ccccc1OCC(=O)N1CCNC1=O	inconclusive: 25.9 µM [rising, single point]
O=C1/C(=C/c2cccc3ccccc23)CCCc2ccccc21	inconclusive: 29.1 µM [cytotoxic, single point]
COc1ccc(-c2nn(-c3ccccc3)cc2C(=O)Nc2cccc(S(=O)(=O)NC3=NCCC3)c2)cc1	inconclusive: 20.6 µM [cytotoxic, single point]
CC(=O)Nc1ccc(Nc2nc3c(S(=O)(=O)c4cccc(Cl)c4)nnn3c3ccsc23)cc1	inactive
CCn1c(N2CCN(S(=O)(=O)c3ccc(Cl)cc3)CC2)nc2ccccc21	active: 8.2 µM
Cc1ccc(SCC(=O)Nc2cccc(NC(=O)c3ccco3)c2)cc1	active: 16.4 µM

2 of the compounds above, in CSV form.
Structure (SMILES),Potency
COC(C)c1oc2c(C)c3oc(=O)cc(C)c3cc2c1C (stereo not given),"inconclusive: 7.31 µM [cytotoxic, partial curve]"
COc1ccccc1OCC(=O)N1CCNC1=O,"inconclusive: 25.9 µM [rising, single point]"
